From publication PMC11915509, “Small molecule inhibitors of hnRNPA2B1–RNA interactions reveal a predictable sorting of RNA subsets into extracellular vesicles” (Nucleic Acids Research, 2025)
The exact form of at least one protein or probe is not confirmed. A weaker result is weaker than the reference pair of the same experiment. For some of these results: At least one result comes from cells or an extract, where the contact may be indirect.

Chains of the proteins cited; added tags and fusions are not shown. Lines headed by an entry give the natural chain unless they say otherwise; changes in a name come on top.
UniProt O88569: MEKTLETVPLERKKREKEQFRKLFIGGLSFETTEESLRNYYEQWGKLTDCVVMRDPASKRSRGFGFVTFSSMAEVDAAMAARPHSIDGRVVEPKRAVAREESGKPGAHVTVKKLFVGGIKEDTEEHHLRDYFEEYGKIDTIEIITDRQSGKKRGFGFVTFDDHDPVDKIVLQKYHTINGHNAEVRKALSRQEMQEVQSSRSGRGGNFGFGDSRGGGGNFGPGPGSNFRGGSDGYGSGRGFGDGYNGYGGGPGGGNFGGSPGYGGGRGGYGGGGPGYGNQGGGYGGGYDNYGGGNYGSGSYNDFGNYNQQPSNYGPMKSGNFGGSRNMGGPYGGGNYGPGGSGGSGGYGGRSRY
UniProt P22626: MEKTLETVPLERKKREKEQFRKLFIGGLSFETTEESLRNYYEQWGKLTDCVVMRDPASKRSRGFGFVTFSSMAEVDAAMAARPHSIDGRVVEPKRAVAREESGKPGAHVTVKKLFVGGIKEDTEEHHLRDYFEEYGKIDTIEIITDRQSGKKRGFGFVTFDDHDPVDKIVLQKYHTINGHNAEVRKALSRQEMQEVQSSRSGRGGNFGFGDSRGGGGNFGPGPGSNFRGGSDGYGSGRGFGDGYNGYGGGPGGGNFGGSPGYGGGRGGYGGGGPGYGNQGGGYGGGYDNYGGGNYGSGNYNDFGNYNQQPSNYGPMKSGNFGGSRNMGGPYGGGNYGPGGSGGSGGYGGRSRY

What was measured:
[1] = target: endogenous Hnrnpa2b1 (UniProt O88569); experiment: pull-down and immunoblot; conditions: EXOmotif > RNA 114 > RNA 276; pull-down: 25 mM HEPES pH 7.5, 100 mM NaCl, 4 C; protein in an extract; label: 5'-biotin-TEG
[2] = target: GST-hnRNPA2B1 (Homo sapiens) (UniProt P22626); experiment: AlphaScreen saturation binding; conditions: nanomolar range, lower affinity than EXOmotif, Kd only in figure, AlphaScreen: 25 mM HEPES pH 7.4, 100 mM NaCl, 0.01% BSA, RT 1 h, REMSA: 20 mM HEPES pH 7.5, 50 mM KCl, 0.5 ug BSA, 0.25% glycerol, recombinant protein, protein details: N-terminal GST (pGEX-6P-1), label: 5'-biotin-TEG

| Sequence | binding result [1] | binding result [2] |
| --- | --- | --- |
| AAGGACUAGC [RNA 114] | binds more weakly | binds more weakly |
| AGGACUGC [RNA 276] | binds more weakly | – |
| GGGGAGGUUAGGGAGGAGGGGGGUAGGCGCC [EXOmotif RNA (biotin)] | binds | – |
